Some results were stated once for a whole list of compounds, not compound by compound.
Assays:
HeLa cells [1] = experiment: Evaluation of cell membrane permeability by flow cytometry (Test 1); conditions: conclusion from MFI of the FAM constructs
HeLa cells [2] = experiment: Intracellular localization by confocal laser scanning microscopy (Test 2); assay type: cell-based, human; conditions: for nucleolar localization: conclusion from FIGS. 2A to 2E; for fluorescence of FAM observed in the nucleolus: 5 μM, 20 hours, methanol-fixed, DAPI/FAM merged images
Experimental: In this test, localization of Samples 1 to 5 in HeLa cells was analyzed. HeLa cells were seeded on collagen-coated 8-well slides at about 2×10^4 cells/well, and cultured overnight in the presence of 5% CO2 at 37° C. A 10% FBS-containing DMEM was used as the cell culture solution.
Then, the supernatant (culture solution) was removed, ice-cooled PBS was added, and washing on ice was performed three times. Then, ice-cooled methanol was added, the sample was left at −20° C. for 10 minutes, and the cells were immobilized. Then, methanol was removed, and washing was then performed three times with ice-cooled PBS. Then, a DAPI-containing encapsulant (commercially available from ThemoFisher Scientific) and a cover glass were used for encapsulation and fluorescence observation was performed under a confocal laser scanning microscope. […] Here, all FIGS. 2A to 2E show images in which fluorescent images of DAPI and FAM were merged.

Row | Substance | cell membrane permeability (HeLa cells [1]) | nucleolar localization (HeLa cells [2]) | fluorescence of FAM observed in the nucleolus (HeLa cells [2])
1 | KKRTLRKRKRKKR (N-terminal acetylation) [Peptide 3, carrier peptide fragment, N-terminal lysine α-amino group acetylated] | better cell membrane permeability than Peptide 5 | significantly better nucleolar localization than Peptide 5 | –
2 | KKRTLRKRRRKKR (N-terminal acetylation) [Peptide 2, carrier peptide fragment, N-terminal lysine α-amino group acetylated] | better cell membrane permeability than Peptide 5 | significantly better nucleolar localization than Peptide 5 | –
3 | Ac-KKRTLRKRKRKKR-FAM (N-acetyl; C-terminal FAM) [Example 3] | – | – | observed in the nucleolus present in the nucleus of the cells in addition to the cytoplasm
4 | Ac-KKRTLRKRRRKKR-FAM (N-acetyl; C-terminal FAM) [Example 2] | – | – | observed in the nucleolus present in the nucleus of the cells in addition to the cytoplasm
5 | Ac-KKRTLRKKRRKKR-FAM (N-acetyl; C-terminal FAM) [Example 4] | – | – | observed in the nucleolus present in the nucleus of the cells in addition to the cytoplasm
6 | KKRTLRKKRRKKR (N-terminal acetylation) [Peptide 4, carrier peptide fragment, N-terminal lysine α-amino group acetylated] | better cell membrane permeability than Peptide 5 | significantly better nucleolar localization than Peptide 5 | –
